# Measured values taken from PubChem BioAssay AID2685 (National Center for Advancing Translational Sciences (NCATS), 2010).
# The list shows a part of the results. Shown are side measurements of this screen, not its main read-out; they come without a call. Compounds called inactive in the main read-out are mostly missing here. Words in brackets tell the shape of the fitted curve; partial curves, single points and poor fits give uncertain potencies.
# Experiment: qHTS Assay for Lipid Storage Modulators in Drosophila S3 Cells;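 for cell number change: cells counted by Cell Tracker Red CMTPX staining in the red channel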
# Conditions: BODIPY lipid droplet fluorescence, 18-24 h; for cell number change: measured here: cell count max response, cells fed with added oleic acid
# In short: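 Laser-scanning cytometry quantifies lipid droplet accumulation (500–530 nm total intensity; droplet/cell object ratio) in oleic acid-fed (400 uM added) Drosophila S3 cells treated with a concentration series. 20 uM Triacsin C defined 100% inhibition.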
# [1] = measured here: cell number channel AC50, cells fed with added oleic acid
# [2] = measured here: lipid fluorescence (Fed channel) AC50, cells fed with added oleic acid
SMILES,cell number change [%],AC50 [1],AC50 [2]
CCn1cc(NC(=O)Nc2ccccc2C(=O)OC)c(C(N)=O)n1,-19.8,"0.116 µM [falling, full curve, poor fit]","29.1 µM [falling, single point]"
COc1cc(S(=O)(=O)N2CCN=C2c2ccccc2)ccc1Cl,0.771,,"14.6 µM [falling, partial curve, poor fit]"
COCCN(CC(=O)Nc1cccc(S(=O)(=O)N2CCCC2)c1)Cc1nc2ccccc2c(=O)[nH]1,,"0.58 µM [rising, single point]",
CCOC(=O)C(=O)N1CCN(c2nc(-c3ccc(Cl)cc3)cs2)CC1,-5.28,,
CCN(C(=O)COC(=O)C1CC1)c1c(N)n(Cc2ccccc2)c(=O)[nH]c1=O,10.2,,"7.31 µM [rising, partial curve]"
CNc1nc(Nc2ccc(Br)cc2)nc(N)c1[N+](=O)[O-],-36.3,"29.1 µM [falling, single point]","23.1 µM [falling, single point]"
CCCC[C@H]1COCCS(=O)(=O)N1Cc1ccc(C)cc1,22.5,,
COc1ccc(CNC(=O)C(OC(C)=O)c2ccccn2)cc1 (stereo not drawn),,"0.164 µM [falling, full curve, poor fit]",
CC(=O)c1cccc(NC(=O)Cn2cnc(S(=O)(=O)N3CCCCC3)c2)c1,21.8,,
CCCC[C@@H]1CNC(=O)C(=O)N1CC(C)(C)C,9.43,,"7.31 µM [rising, partial curve, poor fit]"
Cc1ccc(C2=NOC(=O)/C2=C\C=C\c2ccccc2)cc1,,,"4.11 µM [falling, full curve]"
Cc1cnc(C(=O)OCC(=O)Nc2ccc(Br)cc2F)cn1,-10.3,,"29.1 µM [rising, single point]"
N#Cc1nc(-c2ccco2)oc1NCCN1CCOCC1,4.7,,
CC(C)N(C(=O)c1sc2cc([N+](=O)[O-])ccc2c1Cl)C(C)C,,,"0.13 µM [rising, full curve, poor fit]"
CCc1ccc(N2CC(C(=O)N/N=C/c3ccccc3OC)CC2=O)cc1 (stereo not drawn),13.9,,
O=C(CCCC(=O)N(CC(=O)NC1CCCCC1)c1cccc(F)c1)Nc1ccccn1,-6.58,,"0.1 µM [falling, partial curve, poor fit]"
CCOc1ccc(S(=O)(=O)N2CCC(C(=O)NCCc3ccc(S(N)(=O)=O)cc3)CC2)cc1,25.5,,"18.4 µM [rising, single point]"
O=C(O)C1C2C=CC(C2)C1C(=O)Nc1cccc(C(=O)N2CCCCC2)c1 (stereo not drawn),34.4,,"29.1 µM [rising, single point]"
Cc1ccc(S(=O)(=O)N(CC(=O)NCCSc2ccccn2)c2ccccc2F)cc1,7.92,,"1.16 µM [falling, single point]"
O=C(Cn1nnc(-c2ccc(F)cc2)n1)Nc1ccc2c(c1)OCCO2,-19.3,"0.00517 µM [falling, full curve, poor fit]","0.82 µM [falling, full curve, poor fit]"
C/C(=N\Nc1ccc(F)cc1F)c1cccs1,-15.8,,

# Complete entries, looked up by structure.
# `Cc1ccc(C2=NOC(=O)/C2=C\C=C\c2ccccc2)cc1` as listed: AC50 [2]: 4.11 µM [falling, full curve]
# `CC(C)N(C(=O)c1sc2cc([N+](=O)[O-])ccc2c1Cl)C(C)C` as listed: AC50 [2]: 0.13 µM [rising, full curve, poor fit]
# `N#Cc1nc(-c2ccco2)oc1NCCN1CCOCC1` as listed: cell number change [%]: 4.7
# `C/C(=N\Nc1ccc(F)cc1F)c1cccs1` as listed: cell number change [%]: -15.8

# (listing goes on)

SMILES,cell number change [%],AC50 [1],AC50 [2]
CC(OC(=O)CNC(=O)C12CC3CC(CC(C3)C1)C2)C(=O)Nc1ccc(S(N)(=O)=O)cc1 (stereo not drawn),-44.6,"0.326 µM [falling, partial curve]","0.0146 µM [falling, full curve]"
CC(CCc1ccco1)NC(=O)CCc1nnc2ccc(NCc3ccccc3Cl)nn12 (stereo not drawn),-43.6,"0.0164 µM [falling, full curve, poor fit]","29.1 µM [falling, single point]"
O=C(CCC(=O)OCc1ccc(Br)cc1)Nc1ccccc1,,"0.58 µM [falling, single point]","7.31 µM [falling, partial curve]"
CC(=O)C1C(c2ccccc2Cl)NC(=O)NC1(O)C(F)(F)F (stereo not drawn),19.6,,
Cc1nnc(C)c2c(C)n(Cc3ccc4c(c3)OCO4)c(C)c12,,,"1.84 µM [rising, partial curve]"
CCN1C(=O)C(O)(CC(=O)c2ccccn2)c2ccccc21 (stereo not drawn),-23.3,"2.59 µM [falling, full curve, poor fit]",
C(=N\N1CCN(Cc2cccc3ccccc23)CC1)/c1cccnc1,-22.5,,"29.1 µM [falling, single point]"
NS(=O)(=O)c1ccc(CCNC(=O)c2ccc[nH]c2=S)cc1,-4.5,,"0.58 µM [rising, single point]"
Cc1cccc(C(=O)Nc2nc3ccc(S(C)(=O)=O)cc3s2)c1,27,,"25.9 µM [falling, single point]"
CCOC(=O)c1ccc(NC(=O)CCn2c(=O)oc3ccccc32)cc1,-4.46,"0.146 µM [rising, partial curve, poor fit]","29.1 µM [falling, single point]"
O=C(COc1ccccc1)Nc1ccc(OC(F)(F)C(F)F)c(NC(=O)COc2ccccc2)c1,,"0.116 µM [rising, partial curve]","8.2 µM [rising, partial curve, poor fit]"
Cc1nc2c3cc(F)ccc3n(Cc3ccccc3F)c2s1,37,"9.2 µM [rising, partial curve]","1.3 µM [rising, partial curve]"
CCN1C(=NCCc2cccs2)N[C@@H](CCc2ccccc2)[C@H](C(=O)NCCc2cccs2)[C@H]1C,,,"29.1 µM [falling, single point]"
O=C(CN1C(=O)c2ccccc2C1=O)Nc1ccc(N2CCOCC2)cc1,17.3,,
CCOC(=O)c1c(CSc2ccc(CC)cc2)oc2ccc(O)c(CN(C)C)c12,-71,"20.6 µM [falling, partial curve]","13 µM [falling, partial curve]"
Cc1ccc(S(=O)(=O)N(CC(=O)NCc2ccncc2)Cc2ccc(F)cc2)cc1,9.57,,"6.51 µM [rising, single point]"
Cc1cc(C(=O)N/N=C2\CC(=O)c3ccccc32)c(C)n1-c1ccccc1,-34.5,"0.731 µM [falling, full curve]","0.58 µM [falling, full curve]"
COCCn1nnnc1C1(N(Cc2cc3cc(C)ccc3[nH]c2=O)CC2CCCO2)CCN(C)CC1 (stereo not drawn),-18.9,,"20.6 µM [rising, single point]"
COc1ccc(NC(=O)N2CCCc3ccccc32)cc1,33.5,"5.17 µM [rising, single point]",
S=C(NC1CCCCCC1)NC1CCCC1,-29.3,,"0.326 µM [falling, full curve, poor fit]"
Cc1ccccc1NCc1nnc2n1CCCCC2,-77.8,,

SMILES,cell number change [%],AC50 [1],AC50 [2]
CCc1noc(C)c1C(=O)OCC(=O)NC(=O)c1ccccc1OC,-7.21,,"29.1 µM [falling, single point]"
COc1ccccc1N(CC(=O)Nc1ccccc1C(=O)NCC(C)C)S(C)(=O)=O,10.6,,
c1ccc(Cn2nnnc2C(c2cccs2)N2CCOCC2)cc1 (stereo not drawn),29.1,,"7.31 µM [falling, partial curve, poor fit]"
CCN(CC)C(=O)N1CCN(c2c([N+](=O)[O-])c(=O)oc3ccccc23)CC1,11.9,,"1.03 µM [rising, partial curve, poor fit]"
Cc1nc(CNS(=O)(=O)c2cccnc2)cs1,,"0.00517 µM [rising, full curve, poor fit]",
Cc1cc(C)c2c(C)nn(-c3ccccc3)c2n1,,"2.06 µM [rising, partial curve]","0.58 µM [rising, single point]"
COc1cccc(/C=N/NC(=O)CNC(=O)c2ccncc2)c1O,-18.5,,"6.51 µM [rising, single point]"
COc1cccc(CN(C)C(=O)c2ccccc2Sc2ccccc2C#N)c1,5.95,,"29.1 µM [rising, single point]"
CCCc1cc(C(=O)Nc2cc(C)nn2-c2ccccc2)no1,13,,"0.146 µM [falling, single point]"
COc1ccc(S(=O)(=O)N2CCC(C(=O)NCCN3CCOCC3)CC2)cc1C,17.9,,"0.731 µM [rising, partial curve]"
CCCCn1c(SCC(=O)NCc2ccco2)nc2cc(S(N)(=O)=O)ccc21,33.6,"1.03 µM [rising, full curve, poor fit]",
CCC(=O)N1CCN(CCN=CC2=C(O)CC(C)(C)CC2=O)CC1,-27.6,,
COc1ccc(/C=C(\C#N)C(=O)N2CCOCC2)cc1Br,5.18,"6.51 µM [falling, single point]","6.51 µM [falling, single point]"
O=S(=O)(c1cc(O)ccc1O)c1cccc2c(S(=O)(=O)c3cc(O)ccc3O)cccc12,-17.8,,
CCOc1ccc(C(=O)Nc2nnc(C)s2)cc1OCC,-7.78,,"16.4 µM [rising, partial curve]"
CCN(CC)S(=O)(=O)c1cccc(-c2nnc(SCC(=O)NC)n2CCc2ccccc2)c1,-1.77,,
O=S(=O)(NCC(c1ccco1)N1CCOCC1)c1ccc(Cl)cc1 (stereo not drawn),9.78,,"18.4 µM [falling, single point]"
COc1ccccc1/C=C(/C(=O)NCCCn1ccnc1)c1ccccc1,18,"0.184 µM [rising, full curve, poor fit]","0.184 µM [rising, full curve, poor fit]"
CSc1ccccc1NC(=O)c1cc(C)on1,-4.74,"0.82 µM [falling, partial curve]",
